Measurements reported in PubChem BioAssay AID1259254 (NCATS, 2017).
Here is an unselected part of about 59,000 reagents tested. In the full data, about 1,550 (2.6%) were called active. 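G2 share is only a proxy for re-replication; each gene was hit by three separate siRNAs, and active genes were retested.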 Unmarked entries are inactive. The numbers tell different reagents against one gene apart. Further read-outs or replicates are left out here. Not given: the amount of reagent.

- Screen: 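Finding genes that stop cells copying their DNA twice in one cycle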 (primary screen)
- Cells: human HCT116 colorectal cancer cells
- Reagents: single siRNA against human genes
- Duration: 3 days
- Read-out: 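Nuclei stained with Hoechst and imaged; cell-cycle phase assigned by DNA content; G2 share scaled per plate, non-targeting siRNA 0%, GMNN siRNA 100%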
- Direction: G2 robust z-score and G2 cells, % of GMNN control: higher = more G2 cells, more excess DNA replication
- Rule for the call: 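An siRNA counts as active if its G2 robust z-score lies at least 5 MADs above the screen median; here such calls match roughly 38% of GMNN control or more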

For GTSF1L #1, the entry reads G2 robust z-score -0.531; G2 cells, % of GMNN control -0.766.
Against GTSF1L #2, the values are G2 robust z-score -0.694; G2 cells, % of GMNN control -1.92.
After knock-down of GTSF1L #3, the screen gave G2 robust z-score -0.369; G2 cells, % of GMNN control 0.374.
After knock-down of DMGDH #1, the record shows G2 robust z-score -0.244; G2 cells, % of GMNN control 1.25.
For DMGDH #2 the deposit lists G2 robust z-score 0.788; G2 cells, % of GMNN control 8.51.
With knock-down of DMGDH #3 the results were G2 robust z-score 0.141; G2 cells, % of GMNN control 3.96.
Silencing of KRTCAP2 #1 resulted in: G2 robust z-score 0.205; G2 cells, % of GMNN control 4.41.
After knock-down of KRTCAP2 #2, the record shows G2 robust z-score 0.406; G2 cells, % of GMNN control 5.82.
With knock-down of KRTCAP2 #3, the screen gave G2 robust z-score 2.02; G2 cells, % of GMNN control 17.2.
MYDGF #1 scored G2 robust z-score 0.38; G2 cells, % of GMNN control 5.64.
Against MYDGF #2, the values are G2 robust z-score 2; G2 cells, % of GMNN control 17.
For MYDGF #3, the values are G2 robust z-score 0.276; G2 cells, % of GMNN control 4.91.

Sorted by “G2 robust z-score” (highest first): 2 of the entries above.
MYDGF #2 → G2 robust z-score: 2; G2 cells, % of GMNN control: 17
MYDGF #3 → G2 robust z-score: 0.276; G2 cells, % of GMNN control: 4.91
